# Assay results as given in article PMC4847170, “Insights into the DNA-binding mechanism of a LytTR-type transcription regulator”.
# Legend:
# YpdB (Escherichia coli) = target: T1, YpdB (Escherichia coli) (UniProt P0AE39); experiment: SPR; conditions: reference flow cell, stated no binding; SPR (Biacore T200, SA chip): HBS-EP, 10 mM HEPES pH 7.4, 150 mM NaCl, 3 mM EDTA, 0.005% P20, 25 C; recombinant protein; protein details: N-terminal 6His; label: 5' biotin on strand 1
# T1 sequence (looked up, limits assumed): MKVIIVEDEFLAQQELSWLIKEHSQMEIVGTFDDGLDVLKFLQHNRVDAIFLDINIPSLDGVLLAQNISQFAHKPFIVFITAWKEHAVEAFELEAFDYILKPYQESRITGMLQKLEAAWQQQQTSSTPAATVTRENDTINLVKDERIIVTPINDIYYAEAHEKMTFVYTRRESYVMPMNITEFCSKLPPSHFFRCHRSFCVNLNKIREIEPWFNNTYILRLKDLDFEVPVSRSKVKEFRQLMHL
# [1] = target: T2, YpdB-D53E (Escherichia coli) (UniProt P0AE39); experiment: SPR; conditions: reference flow cell, stated no binding; SPR (Biacore T200, SA chip): HBS-EP, 10 mM HEPES pH 7.4, 150 mM NaCl, 3 mM EDTA, 0.005% P20, 25 C; recombinant protein; protein details: N-terminal 6His; label: 5' biotin on strand 1
# T2 sequence (looked up, limits assumed): T1 sequence (looked up, limits assumed) with D53E
sequence,measurement,setting,value
GGGGCCTTTGCCGCTCAACCGCAAAACTGACCGCTTACATCCCTAAAATAACCACTCAGTTAGGGG (double strand) [PyjiY (YehT binding site control)],binding result,YpdB (Escherichia coli),no binding
same,binding result,[1],no binding

# Positions count from the first letter of the chain named. The exact form of at least one protein or probe is not confirmed. A negative result means that nothing was seen under these conditions. At least one verdict was read from the data and is not stated in words by the source. Protein sequences can lack the tags named with them.
